Measured data: PubChem BioAssay AID1224830 (NIAID, 2016)

Test: 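Regulators of TLR4 signalling towards TNF-alpha in macrophage-like cells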 (primary screen)
Cells: human THP-1 monocytic leukaemia cells, TNF dual-luciferase reporter clone, PMA-differentiated to macrophage-like cells
Reagent: siRNA pool against human genes, 50 nM
Timing: LPS for 4 h, given about 3 days after siRNA transfection
Treatment: bacterial LPS (TLR4 ligand), 10 ng/ml
Measurement: 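TNF firefly reporter luminescence divided by renilla, normalised to the plate median, then turned into a robust z-score for each replicate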
Scale: TNF reporter robust z-score: higher = stronger TNF reporter response to LPS
Active means: 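Each well counts as active if its z-score is over 2.8 or under -1.5; controls are left without a call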
The whole screen tested about 18,000 reagents; shown is a part drawn at random. Of all reagents, about 2,900 (16%) are marked active. 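Calls are made per well; low scores hint the gene aids the LPS response, high scores that it dampens it.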 Repeated entries: four replicate wells of each siRNA pool.

gene | TNF reporter robust z-score | activity call
CHRND | -1.05 | inactive
CHRND | -1.33 | inactive
CHRND | -1.48 | inactive
CHRND | -0.81 | inactive
TLR5 | 1.44 | inactive
TLR5 | -0.17 | inactive
TLR5 | 0.53 | inactive
TLR5 | 1.15 | inactive
PDILT | -0.3 | inactive
PDILT | 0.6 | inactive
PDILT | 0.26 | inactive
PDILT | 0.15 | inactive
FGFBP3 | -1.36 | inactive
FGFBP3 | -0.93 | inactive
FGFBP3 | -1.59 | active
FGFBP3 | -1.07 | inactive
SLCO1B3 | 0.16 | inactive
SLCO1B3 | 0.7 | inactive
SLCO1B3 | 0.44 | inactive
SLCO1B3 | 0.84 | inactive
LTF | -0.58 | inactive
LTF | 0.66 | inactive
LTF | -0.05 | inactive
LTF | -0.06 | inactive
OR5M8 | -0.39 | inactive
OR5M8 | 0.32 | inactive
OR5M8 | -0.04 | inactive
OR5M8 | 0.96 | inactive
ADAMTS19 | 1.9 | inactive
ADAMTS19 | 1.03 | inactive
ADAMTS19 | 1.26 | inactive
ADAMTS19 | 0.33 | inactive
TGS1 | -0.42 | inactive
TGS1 | 0.74 | inactive
TGS1 | 0.13 | inactive
TGS1 | 0.28 | inactive
MYH9 | 0.1 | inactive
MYH9 | -0.11 | inactive
MYH9 | -0.23 | inactive
MYH9 | 0.06 | inactive
C4orf36 | -0.89 | inactive
C4orf36 | -0.3 | inactive
C4orf36 | -0.55 | inactive
C4orf36 | -0.48 | inactive
PSMC3 | -1.27 | inactive
PSMC3 | -1.49 | inactive
PSMC3 | -1.74 | active
PSMC3 | -1.2 | inactive
CCDC126 | -1.07 | inactive
CCDC126 | -0.71 | inactive
CCDC126 | 0.12 | inactive
CCDC126 | -0.92 | inactive
PLSCR4 | -0.53 | inactive
PLSCR4 | 0.38 | inactive
PLSCR4 | -0.75 | inactive
PLSCR4 | -1.03 | inactive
FHOD3 | -0.12 | inactive
FHOD3 | 0.1 | inactive
FHOD3 | 0.18 | inactive
FHOD3 | 0.34 | inactive
DPH7 | -0.29 | inactive
DPH7 | 0.35 | inactive
DPH7 | 0.22 | inactive
DPH7 | 0.24 | inactive
OR10S1 | 1.85 | inactive
OR10S1 | 1.37 | inactive
OR10S1 | 0.26 | inactive
OR10S1 | 1.5 | inactive
ZW10 | 1.82 | inactive
ZW10 | 1.75 | inactive
ZW10 | -0.03 | inactive
ZW10 | 0.08 | inactive
CLK4 | 3.53 | active
CLK4 | -0.24 | inactive
CLK4 | -0.34 | inactive
CLK4 | 0.52 | inactive

Ordered by “TNF reporter robust z-score” (high to low): some entries from above.
gene | TNF reporter robust z-score | activity call
TLR5 | 1.44 | inactive
TLR5 | 1.15 | inactive
PDILT | 0.6 | inactive
TLR5 | 0.53 | inactive
PDILT | 0.26 | inactive
PDILT | 0.15 | inactive
TLR5 | -0.17 | inactive
PDILT | -0.3 | inactive
FGFBP3 | -1.36 | inactive
